Test results published in publication PMC12179280.
No constants are given. Whether binding was seen depends on the method and setting. In cells and extracts the contact can be indirect. Some entries that bind do so weakly or less than the wild type.

By UniProt entry, the sequences of proteins in these tests, tags left out.
UniProt P08754: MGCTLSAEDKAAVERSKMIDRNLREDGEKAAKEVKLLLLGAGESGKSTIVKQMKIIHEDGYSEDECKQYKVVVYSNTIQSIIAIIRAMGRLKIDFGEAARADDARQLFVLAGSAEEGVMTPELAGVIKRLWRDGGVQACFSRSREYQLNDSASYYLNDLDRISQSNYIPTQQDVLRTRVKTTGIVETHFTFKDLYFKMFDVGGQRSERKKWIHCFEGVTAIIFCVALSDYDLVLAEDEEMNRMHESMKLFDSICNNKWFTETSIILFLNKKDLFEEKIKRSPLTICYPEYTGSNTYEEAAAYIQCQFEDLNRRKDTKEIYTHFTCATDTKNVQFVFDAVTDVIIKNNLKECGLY
UniProt O95377: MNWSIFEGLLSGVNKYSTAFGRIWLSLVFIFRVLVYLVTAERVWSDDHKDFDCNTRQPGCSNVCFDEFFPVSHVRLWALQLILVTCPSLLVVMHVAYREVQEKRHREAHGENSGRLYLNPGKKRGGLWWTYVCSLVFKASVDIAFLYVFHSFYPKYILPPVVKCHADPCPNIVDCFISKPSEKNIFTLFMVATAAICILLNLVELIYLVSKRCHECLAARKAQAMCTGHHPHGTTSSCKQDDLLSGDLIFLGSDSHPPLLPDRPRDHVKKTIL

Assays:
[1] = molecular target: Gαi3 (G alpha inhibitory protein 3) (human (endogenous in primary cervical cancer cells and cervical cancer tissues)) (UniProt P08754); assay: co-IP; lysates of priCC-1 and priCC-2 primary human cervical cancer cells; endogenous proteins; protocol in ref. 30
[2] = molecular target: Gαi3 (G alpha inhibitory protein 3) (human (endogenous in primary cervical cancer cells and cervical cancer tissues)) (UniProt P08754); assay: co-IP; lysates of human cervical cancer tissues of three representative patients; endogenous proteins; protocol in ref. 30

For “Gap junction protein beta 5 (from UniProt O95377 1-273)”, the binding [1] was “binds” and the binding [2] was “binds”.
